Measurements reported in PubChem BioAssay AID588463 (National Center for Advancing Translational Sciences (NCATS), 2011).
The whole screen tested about 1,200 compounds, of which about 15 (1%) were called active. Roughly 7% stayed inconclusive and do not appear here. The call rests on the fitted dose curve; in most records, active means well fitted activation curve with a large enough effect; inconclusive means small, poorly fitted or top-dose-only effect; inactive means flat fitted curve, though single readings scatter. The list shows a part of the results.

target: Beta-2 adrenergic receptor (Homo sapiens) (UniProt P07550); test: qHTS assay of beta-arrestin-biased ligands of beta2-adrenergic receptor: Hit Validation; details: cell-based beta-arrestin recruitment to beta2AR; Potency: activation; series mostly up to 46.1 µM; activation: at the top concentration;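 further: plate controls were DMSO for no effect and maximal isoproterenol or metaproterenol response for full effect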
Method in brief: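 Luminescent tTA-driven luciferase reporter in Tango cells, read after 18 h at 37 °C with compound and 15 min with substrate mix (0.15 mM ATP, 0.44 mM D-luciferin, final). Concentration-response fits categorized by curve class.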

activation, inactive:
Cc1ccc(NC(=O)/C=C/c2ccc([N+](=O)[O-])s2)cc1 -1.08%
COCc1cc(CN2CCCC2)c(O)c2ncccc12 -2.36%
Cc1cc(C(=O)Nc2cccc3c2O[C@@H](CN(C)S(=O)(=O)c2ccccc2)[C@H](C)CN([C@@H](C)CO)C3=O)n(C)n1 0.0438%
COc1ccc(C(C)NC(=O)c2ccc(Br)cc2)cc1OC (stereo not drawn) 8.18%
O=[N+]([O-])c1cccc(S(=O)(=O)Nc2nc3ccccc3nc2Nc2cccc(S(=O)(=O)N3CCCCC3)c2)c1 -2.99%
CC(=O)Nc1ccc(C2=NN(c3ccccc3)C(c3cccs3)C2)cc1 (stereo not drawn) -0.888%
CCN(CC)C(=O)[C@H]1CC(CC(=O)NCc2ccc(OC)c(OC)c2)C(=O)N2CCc3c([nH]c4ccccc34)[C@]12C (stereo partly drawn) -7.37%
COc1ccc2ccccc2c1/C=N/NC(=S)NCCN1CCOCC1 -2.79%
Oc1ccc(/C=N/NC(=S)NC2CC3CCC2C3)cc1 (stereo not drawn) -3.62%
CC(C)NC(=S)N/N=C/c1cccs1 0.0651%
O=C(Cn1ncc(Cl)c(Cl)c1=O)c1ccc2c(c1)OCCO2 -3.28%
COc1ccc(C2CC(O)(c3ccccc3)Oc3cc(OC)c(OC)c(OC)c32)cc1 (stereo not drawn) -2.34%
Cc1cccnc1NC(=S)NCc1ccco1 -4.61%
CC(=O)c1cccc(CN2CCN(CCC(C)C)C(CCO)C2)c1 (stereo not drawn) -4.2%
CCOC(=O)Nc1ccc2c(c1)N(C(=O)N(CC)CC)c1ccccc1CC2 -2.05%
COc1ccc(N2CCN(C(=O)CSc3nnc4n3C(C)(C)Cc3ccccc3-4)CC2)cc1 -2.49%
CCOc1ccc(CNC(=S)N/N=C\c2ccc([N+](=O)[O-])cc2)cc1 -0.211%
COc1ccc(NC(=O)C2C(=O)N(C)C3(C)CC2c2ccccc2O3)cc1 (stereo not drawn) -1.4%
CNCc1ccccc1Sc1cc(O)ccc1O -2.8%
CCCC(C(=O)N1CCOCC1)N1C(=O)C2C3C=CC(C3)C2C1=O (stereo not drawn) -2.13%
COc1ccc(NS(=O)(=O)c2ccc3oc(SC4CCOC4=O)nc3c2)cc1 (stereo not drawn) -2.61%
COc1cc(CNCCCN2CCOCC2)c(Br)cc1OCC(=O)Nc1ccccc1C 1.75%
CN1/C(=C/C(=S)NC(=O)C2(C)CC2(Cl)Cl)C(C)(C)c2ccccc21 (stereo not drawn) -1.09%
O=C(/C=C/c1ccc(F)cc1)NC(=S)N1CCN(Cc2ccccc2)CC1 -2.33%
O=Cc1ccc(O)c2ncccc12 0.14%
Cc1cc(C)nc(-n2nc(C)cc2NC(=O)CN2CCCC2)n1 -2.83%
COc1ccc(/C=C(\C#N)C(=O)OCC(=O)NCc2ccccc2)cc1 -4.17%
Cc1cccc(OCC(=O)N/N=C/C=C/c2ccco2)c1 -3.67%
COc1ccc2nc(NC(=O)[C@@H]3CCCN3C(=O)c3cccs3)sc2c1 0.537%
CCC(C(=O)Nc1cc(C)nn1-c1nc(C)cc(C)n1)c1ccccc1 (stereo not drawn) -1.95%
CCOc1ccc(S(=O)(=O)NCCCn2ccnc2)cc1NC(C)=O -5.39%
CCNc1nc(NCC)nc(N/N=C/c2ccc(N(C)C)cc2)n1 -1.19%
CCCC1(C(=O)OCC)NC(c2ccc(OC)cc2OC)C2C(=O)N(c3ccc4c(c3)OCCO4)C(=O)C21 (stereo not drawn) -2.03%
CCCn1c(Nc2nc3ccccc3n2C)nc2ccccc21 -2.95%
CCNc1nc(NCC)nc(N(C)/N=C/c2ccco2)n1 -0.197%
C/C(=N\NC(=S)NC(C)C)c1ccc(Cl)c([N+](=O)[O-])c1 -2.51%
COc1cccc(C(=O)NC(=S)Nc2ccccc2N2CCCCC2)c1 -1.12%
S=c1[nH]nc(-c2ccccc2)n1C1C=CCCC1 (stereo not drawn) -0.185%
Clc1ccccc1C1Nc2cccc3cccc(c23)N1 -2.65%
CCOc1cccc(/C=C/c2ccc3cccc(O)c3n2)c1OC -1.23%
CS/C(N)=N/N=C/c1cc(C)ccc1O -8.4%
O=C(NCc1ccco1)c1cccn2c(=O)c3c4c(sc3nc12)CCCC4 -2.6%
CC(NC(=O)/C=C/c1ccco1)c1nc2ccccc2n1Cc1cccc(Cl)c1 (stereo not drawn) -3.82%
CCOc1ccc(/C=N/NC(=S)NC2CC3CCC2C3)cc1 (stereo not drawn) -0.951%
O=C1NC(c2ccc(-c3ccccc3[N+](=O)[O-])o2)C(C(=O)c2ccccc2)C(O)(C(F)(F)F)N1 (stereo not drawn) 8.4%
COc1ccc(NC(=S)Nc2ccccn2)cc1 -0.613%
C/C(=N\NC(=S)NC1CCCCC1)c1cccs1 -5.46%
C[C@H](CO)N1C[C@H](C)[C@@H](CN(C)Cc2ccc3c(c2)OCO3)Oc2c(NC(=O)Cc3ccccc3)cccc2C1=O 4.2%
CCCC1=C/C(=C/c2ccc(-c3ccccc3OC)o2)C(=O)O1 -2.17%
Oc1oc(-c2cccc3ccccc23)nc1/C=N/c1nccs1 -0.65%
COc1cc(C=C(c2nc3ccccc3s2)c2nc3ccccc3s2)cc(OC)c1O 3.82%
COc1cc(OC)cc(C(=O)Oc2c(CN3CCOCC3)cc(Cl)c3cccnc23)c1 -3.45%
N/C(=N\OC(=O)C1CCCCC1)c1cccc(Br)c1 -1.33%
COc1cc(/C=N/Nc2ccc(F)cc2F)cc(OC)c1O -4.91%
C=CCn1c(CSc2nc3ccccc3s2)n[nH]c1=S -1.62%
COc1ccc(CCNC(=O)C2CCN(Cc3nc(-c4ccccc4F)oc3C)CC2)cc1OC -2.22%
Cc1cc(=O)n2cccc(O)c2n1 -5.71%
COc1ccc(C(=O)Oc2c(CN3CCOCC3)cc(Cl)c3cccnc23)cc1 -0.937%
O=C(C[n+]1ccccc1)Nc1ccccc1Br -0.761%
COc1cc(/C=C/c2ccc3c(Br)cc(Br)c(O)c3n2)ccc1O -2.11%
O=C(NCCc1ccccc1)c1cnc2sccn2c1=O -4.24%
COC(=O)c1ccc(COC(=O)CNC(=O)C2CCCCC2)cc1 -1.24%
CNC(=S)N/N=C(\C)c1ccc(Cl)s1 -3.17%
COc1cnc(-c2ccccn2)nc1Oc1ccccc1 -3.27%
CCOc1ccc(/C(CCC(=O)O)=N/NC(=S)NC(C)C)cc1 -1.96%
Cc1ccc(CNS(=O)(=O)c2ccc(CN3C(=O)c4cccnc4C3=O)s2)o1 0.159%
CC1(C)CC(C)(c2ccc(O)cc2O)N(c2cccc(Cl)c2)C(=S)N1 (stereo not drawn) 5.1%
CN(C)/C=C1\C=C(c2ccccc2)OC1=O -1.82%
COc1ccccc1-c1cc(C(=O)N2CCN(c3ccccc3OC)CC2)no1 -1.04%
O=C1CNC(=S)N1c1nc2ccccc2s1 -6.16%
Clc1ccc(Cn2c(/C=C/c3ccco3)nc3ccccc32)cc1 -3.55%
Cc1cc(C(=O)C(C)Sc2cccc[n+]2[O-])c(C)n1-c1ccc(Cl)cc1 (stereo not drawn) -3.82%
COCCCNC(=S)N/N=C/c1ccc(OC)c(Br)c1 -1.26%
CC(=O)N1CCN(CC(=O)c2ccc(Br)cc2)CC1 -1.68%
Cc1cccc(NC(=S)N/N=C/c2cccc([N+](=O)[O-])c2)c1 -3.51%
C(=N\N=C\c1cccnc1)/c1cccnc1 -2.73%
C(=C\c1ccco1)/C1=NN(c2ccccc2)C(c2ccco2)C1 (stereo not drawn) -0.565%
Cn1cccc1C(=O)NC(=O)CSc1cccc[n+]1[O-] -3.1%
NC(=S)NN=C1c2ccccc2-c2ccccc21 -2.56%
C=C(C)CNC(=S)N/N=C/c1c(F)cccc1F -2.74%
Cn1c(=O)n(/N=C/c2ccccc2)c2ccccc21 -4.05%
Cc1ccc(C2CC2c2n[nH]c(=S)n2-c2cccc(C)c2)cc1 (stereo not drawn) -2.82%
O=C(COC(=O)c1n[nH]c(=O)c2ccccc12)NCc1ccccc1 -0.0692%
CCN(CC)C(=O)CN(c1cccc(OC)c1)S(=O)(=O)c1ccc(C)cc1 -4.37%
CCN(CC)CCN(Cc1cc2cc3c(cc2[nH]c1=O)OCCO3)C(=S)NCC1CCCO1 (stereo not drawn) -5.31%
Cc1nc(SCC(=O)N2CCOCC2)c2c3c(sc2n1)CCC3 -2.56%
CC1(C)CC(=O)c2cnc(NCC3CCCO3)nc2C1 (stereo not drawn) -2.57%
CCCn1nnc(NC(=S)NC(=O)Cc2ccccc2)n1 0.0105%
CN1CCN(c2ccc(C(F)(F)F)cc2NC(=O)c2ccco2)CC1 -3.16%
C=CCn1c(-c2ccc(Cl)cc2)c[nH]c1=S -0.418%
Cc1cc(NC(=S)Nc2ccc(C)c(Cl)c2)n[nH]1 -1.62%
CCn1c2ccccc2c2c3ncc4cccn4c3ccc21 -0.556%
O=C(CSc1cccc[n+]1[O-])Nc1ccccc1Oc1ccccc1 -3.96%
CCC1CCCCN1CC(=O)Nc1cc(C)nn1-c1nc(C)cc(C)n1 (stereo not drawn) -2.24%
Cc1ccc(C(=O)Oc2ccc(Cl)c3cccnc23)cc1[N+](=O)[O-] 4.83%
CCN(CC)c1ccc(NC2=C(Cl)C(=O)c3ccccc3C2=O)cc1 -3.58%
N#Cc1nc(-c2ccc(OCc3ccc(Cl)cc3)cc2)oc1NCCCn1ccnc1 -1.82%
C=CCOc1c(Br)cc(CNc2ccc(NC(=O)C(C)C)c(OC)c2)cc1OCC -3.48%
S=C(NCCN1CCOCC1)N/N=C/c1cccs1 -3.37%
CCCCn1c(Cc2ccccc2)n[nH]c1=S -2.41%
CC(=O)Nc1ccc(S(=O)(=O)N2CCC(c3nnc(-c4ccc(C)cc4)o3)CC2)cc1 -2.84%
Cc1cc(Cl)ccc1NC(=S)Nc1ccccn1 -0.457%
O=C1NC2(C=Cc3c(ccc4ccccc34)O2)Oc2ccccc21 (stereo not drawn) -3.25%
O=C(CS(=O)(=O)c1ccccc1)Nc1nc2ccccc2s1 0.232%
Cc1noc(C)c1COc1cccc(C(=O)Nc2ccccc2N2CCOCC2)c1 -1.11%
O=C(/C=C/c1ccccc1)/C=C/c1ccccc1 -4.44%
C/C(CC1CC2=C(CC1(C)C)C(C)(C)CCC2)=N\NC(N)=S (stereo not drawn) -3.25%
O=C(Oc1c(Cl)cc(Cl)c2cccnc12)c1ccco1 1.01%
CCc1nnc(NC(=O)c2ccc3ccccc3n2)s1 2.67%
CCOC(=O)c1c(NC(=O)CSc2cccc[n+]2[O-])sc(C(=O)Nc2ccccc2)c1C -0.439%
COc1ccc2c(c1)OC[C@H]1[C@H]2N2C(=O)c3ccc(C)cc3NC(=O)[C@@]2(C)[C@H]1c1ccccc1 -0.129%
Cc1ccc(/C=C/C(=O)c2ccccc(=O)c2O)c(C)c1 0.972%
CCOC(=O)C1=C(C)N(c2ccc(C)cc2)C(=O)/C1=C\c1ccc(O)c(OC)c1 0.409%

Two records drawn at random from those above, as already listed:
activation, inactive:
Oc1oc(-c2cccc3ccccc23)nc1/C=N/c1nccs1 -0.65%
CC(NC(=O)/C=C/c1ccco1)c1nc2ccccc2n1Cc1cccc(Cl)c1 (stereo not drawn) -3.82%

Quoted from the results shown for reference:
activation, inactive:
C=CCn1c(-c2ccc(Cl)cc2)c[nH]c1=S -0.418%
Cc1cc(NC(=S)Nc2ccc(C)c(Cl)c2)n[nH]1 -1.62%
CCn1c2ccccc2c2c3ncc4cccn4c3ccc21 -0.556%
O=C(CSc1cccc[n+]1[O-])Nc1ccccc1Oc1ccccc1 -3.96%
